Data: patent US20110313131 (published 2011)

Test: peptide synthesis
Settings: purification step

(Aib^8,35)GLP-1(7-36)NH2
final purity (method not given) (run 1): 97.0% | step yield (run 1): 87% | final purity (method not given) (run 2): 97.2% | step yield (run 2): 93% | final purity (method not given) (run 3): 97.4% | step yield (run 3): 98% | final purity (method not given) (run 4): 97.1% | step yield (run 4): 99% | final purity (method not given) (run 5): 96.7% | step yield (run 5): 86%
